The values below come from patent US10729659B2, “Nanogel-mediated drug delivery” (The Cleveland Clinic Foundation, priority 2012, dated 2020).

Assay [1] relates to MCF-7. The assay can be described thus: Sequential treatment, cell viability by MTS assay. Type of assay: cell-based. To be noted: Homo sapiens, MCF7, dox alone, read-out: IC50 (Dox ng/mL). As for the experimental part:
(§1) The efficacy of sequential treatment was tested in the following human breast cancer cell lines: MCF-7/Adr (drug resistant), MCF-7, MDAMB 231 and BT-459. Cells were seeded at 3000 cells per well/0.1 mL in 96-well plates (Microtest Becton Dickinson Labware, Franklin Lakes, N.J.). 24 h post seeding, cells were pretreated with DAC solution/nanogel for 24 h or 48 h and washed with 1×-DPBS. 0.1 mL of media containing dox solution or nanogel was added and incubated in CO2 incubator for 48 h. Cell viability was determined at the end of incubation period using a standard MTS assay (CellTiter 96 Aqueous, Promega, Madison, Wis.). To each well was added 20 μL of reagent, the plates were incubated for 2 h at 37° C. in cell culture incubator, and color intensity was measured at 490 nm using a micro plate reader (Bio-Tek Instrument, Winooski, Vt.). The effect of drug on cell proliferation was calculated as percentage growth of cells with respect to their respective controls. […]
(§2) The interaction between DAC and dox was analyzed using the Calcusyn software program (Biosoft, Ferguson, Mo.) to determine whether the simultaneous/sequential treatment was additive or synergistic.
(§3) Data from cell viability assay (MTS) was expressed as the fraction of cells killed by individual drugs or by their combination in drug-treated compared with untreated cells. […]
Background: Formazan colour is commonly taken as a measure of viable cells.

For assay [2], the system named is MDA MB-231. Kind of assay: Sequential treatment, cell viability by MTS assay. Type of assay: cell-based. To be noted: Homo sapiens, dox alone, read-out: IC50 (Dox ng/mL). On the procedure: as §1, §2, §3

On to `COc1cccc2c1C(=O)c1c(O)c3c(c(O)c1C2=O)C[C@@](O)(C(=O)CO)C[C@@H]3O[C@H]1C[C@H](N)[C@H](O)[C@H](C)O1` [Dox, doxorubicin], for which the IC50 in assay [1] came out at 20.7 ± 0.8 ng/mL; in assay [2], 19.3 ± 1.9 ng/mL.
